Assay results from article PMC4151100.
The exact form of at least one protein or probe is not confirmed. Where cells or extracts were used, other partners may take part. At least one verdict rests on a figure or table, not on a statement of the authors.

By UniProt entry, the sequences of proteins in these tests, tags left out. Residues count along the entry.
UniProt Q13308, 31-1070: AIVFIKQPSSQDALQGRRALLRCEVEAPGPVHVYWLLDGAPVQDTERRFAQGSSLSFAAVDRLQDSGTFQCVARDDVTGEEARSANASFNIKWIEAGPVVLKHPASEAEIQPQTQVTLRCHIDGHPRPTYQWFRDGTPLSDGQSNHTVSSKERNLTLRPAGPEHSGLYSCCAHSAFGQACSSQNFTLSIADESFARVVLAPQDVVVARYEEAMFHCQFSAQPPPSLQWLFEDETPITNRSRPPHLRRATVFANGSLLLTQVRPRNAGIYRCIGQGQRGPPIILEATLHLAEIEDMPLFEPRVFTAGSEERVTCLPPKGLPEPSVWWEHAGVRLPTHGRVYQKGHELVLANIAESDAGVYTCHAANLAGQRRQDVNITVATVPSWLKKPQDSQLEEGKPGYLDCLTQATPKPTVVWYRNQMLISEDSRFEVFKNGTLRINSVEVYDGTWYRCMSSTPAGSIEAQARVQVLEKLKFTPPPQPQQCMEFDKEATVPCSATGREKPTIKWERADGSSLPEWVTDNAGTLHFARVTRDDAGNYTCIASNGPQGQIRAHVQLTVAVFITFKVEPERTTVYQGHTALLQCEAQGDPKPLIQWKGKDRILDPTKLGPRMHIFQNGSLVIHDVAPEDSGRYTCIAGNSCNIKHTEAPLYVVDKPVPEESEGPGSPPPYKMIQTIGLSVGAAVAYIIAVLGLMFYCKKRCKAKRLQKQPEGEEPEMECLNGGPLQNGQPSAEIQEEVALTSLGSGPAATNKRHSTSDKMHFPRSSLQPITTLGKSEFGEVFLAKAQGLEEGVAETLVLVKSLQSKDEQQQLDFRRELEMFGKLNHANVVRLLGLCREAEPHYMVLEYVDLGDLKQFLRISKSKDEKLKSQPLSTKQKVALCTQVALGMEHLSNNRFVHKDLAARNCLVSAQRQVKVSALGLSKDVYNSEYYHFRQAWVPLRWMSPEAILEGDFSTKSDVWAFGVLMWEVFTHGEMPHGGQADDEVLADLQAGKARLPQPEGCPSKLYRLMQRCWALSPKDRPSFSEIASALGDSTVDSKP

Key:
[1] = molecular target: protein tyrosine kinase 7 (PTK7) on HeLa cells (UniProt Q13308); assay: two-photon luminescence cell imaging; settings: GIAN-Sgc8, 4 C, 2 h, 95-C cells gave no positive signal, adsorbed on graphene-isolated Au nanocrystal (GIAN), Working buffer 20 mM Tris-HCl, 100 mM NaCl, 2 mM MgCl2, pH 7.4, cell imaging 2 h at 4 C, flow cytometry buffer and temperature not given, protein on the cell surface, single-stranded DNA
[2] = molecular target: protein tyrosine kinase 7 (PTK7) on HeLa cells (UniProt Q13308); assay: flow cytometry; settings: much stronger than 95-C cells, attributed to higher PTK7 expression, Working buffer 20 mM Tris-HCl, 100 mM NaCl, 2 mM MgCl2, pH 7.4, cell imaging 2 h at 4 C, flow cytometry buffer and temperature not given, protein on the cell surface, label: 3'-FAM, single-stranded DNA

Sequence | binding result [1] | binding result [2]
AAAAAAAAATCTAACTGCTGCGCCGCCGGGAAAATACTGTACGGTTAGA [Sgc8 (on GIAN)] | binds | –
AAAAAAAAATCTAACTGCTGCGCCGCCGGGAAAATACTGTACGGTTAGA [Sgc8-FAM] | – | binds
